B1: OSTC (protein, UniProt Q9NRP0 1-149)
chain: METLYRVPFLVLECPNLKLKKPPWLHMPSAMTVYALVVVSYFLITGGIIYDVIVEPPSVGSMTDEHGHQRPVAFLAYRVNGQYIMEGLASSFLFTMGGLGFIILDRSNAPNIPKLNRFLLLFIGFVCVLLSFFMARVFMRMKLPGYLMG
B2: MYCL1 (protein, UniProt P12524 1-364)
chain: MDYDSYQHYFYDYDCGEDFYRSTAPSEDIWKKFELVPSPPTSPPWGLGPGAGDPAPGIGPPEPWPGGCTGDEAESRGHSKGWGRNYASIIRRDCMWSGFSARERLERAVSDRLAPGAPRGNPPKASAAPDCTPSLEAGNPAPAAPCPLGEPKTQACSGSESPSDSENEEIDVVTVEKRQSLGIRKPVTITVRADPLDPCMKHFHISIHQQQHNYAARFPPESCSQEEASERGPQEEVLERDAAGEKEDEEDEEIVSPPPVESEAAQSCHPKPVSSDTEDVTKRKNHNFLERKRRNDLRSRFLALRDQVPTLASCSKAPKVVILSKALEYLQALVGAEKRMATEKRQLRCRQQQLQKRIAYLTGY
B3: RB1 (protein, UniProt P06400 1-928)
chain: MPPKTPRKTAATAAAAAAEPPAPPPPPPPEEDPEQDSGPEDLPLVRLEFEETEEPDFTALCQKLKIPDHVRERAWLTWEKVSSVDGVLGGYIQKKKELWGICIFIAAVDLDEMSFTFTELQKNIEISVHKFFNLLKEIDTSTKVDNAMSRLLKKYDVLFALFSKLERTCELIYLTQPSSSISTEINSALVLKVSWITFLLAKGEVLQMEDDLVISFQLMLCVLDYFIKLSPPMLLKEPYKTAVIPINGSPRTPRRGQNRSARIAKQLENDTRIIEVLCKEHECNIDEVKNVYFKNFIPFMNSLGLVTSNGLPEVENLSKRYEEIYLKNKDLDARLFLDHDKTLQTDSIDSFETQRTPRKSNLDEEVNVIPPHTPVRTVMNTIQQLMMILNSASDQPSENLISYFNNCTVNPKESILKRVKDIGYIFKEKFAKAVGQGCVEIGSQRYKLGVRLYYRVMESMLKSEEERLSIQNFSKLLNDNIFHMSLLACALEVVMATYSRSTSQNLDSGTDLSFPWILNVLNLKAFDFYKVIESFIKAEGNLTREMIKHLERCEHRIMESLAWLSDSPLFDLIKQSKDREGPTDHLESACPLNLPLQNNHTAADMYLSPVRSPKKKGSTTRVNSTANAETQATSAFQTQKPLKSTSLSLFYKKVYRLAYLRLNTLCERLLSEHPELEHIIWTLFQHTLQNEYELMRDRHLDQIMMCSMYGICKVKNIDLKFKIIVTAYKDLPHAVQETFKRVLIKEEEYDSIIVFYNSVFMQRLKTNILQYASTRPPTLSPIPHIPRSPYKFPSSPLRIPGGNIYISPLKSPYKISEGLPTPTKMTPRSRILVSIGESFGTSEKFQKINQMVCNSDRVLKRSAEGSNPPKPLKKLRFDIEGSDEADGSKHLPGESKFQQKLAEMTSTRTRMQKQKMNDSMDTSNKEEK
B4: TOR1B (protein, UniProt O14657 25-336)
chain: FEPITVGLAIGAASAITGYLSYNDIYCRFAECCREERPLNASALKLDLEEKLFGQHLATEVIFKALTGFRNNKNPKKPLTLSLHGWAGTGKNFVSQIVAENLHPKGLKSNFVHLFVSTLHFPHEQKIKLYQDQLQKWIRGNVSACANSVFIFDEMDKLHPGIIDAIKPFLDYYEQVDGVSYRKAIFIFLSNAGGDLITKTALDFWRAGRKREDIQLKDLEPVLSVGVFNNKHSGLWHSGLIDKNLIDYFIPFLPLEYRHVKMCVRAEMRARGSAIDEDIVTRVAEEMTFFPRDEKIYSDKGCKTVQSRLDFH

No constants are given. Whether binding was seen depends on the method and setting. In cells and extracts the contact can be indirect. Some entries that bind do so weakly or less than the wild type. Tags and fused reporters may be left off the sequences shown.

The text below walks through data of PMC11480952.

This assay concerns the target serine/threonine protein kinase ARAF (v-raf murine sarcoma 3611 viral oncogene homolog) (human (endogenous in liver cancer cells)) (UniProt P10398). The experiment in a line: co-IP; co-immunoprecipitation with anti-ARAF, Western blot; liver cancer cells of the rLV group and the rLV-CARM1 (CARM1 overexpressing) group compared.
Turning to B1, the binding result is on record as “binds”.
The result for B2 reads “binds”.
The result for B3 reads “binds”; that for B4, “binds”.
